Assay results reported in US8501950B2, “N-cyanoalkylanthranilamides as insecticides” (Syngenta Crop Protection LLC, priority 2006, dated 2013).
Some of these results come from one statement about several compounds together.

Tested on: Spodoptera littoralis (Cotton Leafworm)
Experiment: Example B9: systemic insecticide test for Spodoptera littoralis, maize seedlings at 12.5 ppm
Type: in vivo
Details: 12.5 ppm in water, systemic via maize seedlings, one replicate
Method: Systemic Insecticide Test for Spodoptera littoralis (Cotton Leafworm)
[…] Seedlings are allowed to grow for six days. Subsequently leaves are cut and placed in a Petri dish (5 cm diameter), inoculated with twelve to fifteen 1st instar S. littoralis larvae and incubated for four days in a growth chamber (25° C., 50% r.h., 18:6 L:D photo period). Number of alive insects are counted and percentage of dead calculated. Tests were conducted with one replicate.

Cc1cc(Cl)cc(C(=O)NC(C)(C#N)C2CC2)c1NC(=O)c1cc(C(F)(F)F)nn1-c1ncccc1Cl (single isomer, unassigned) [Compound T1.1.49b]
mortality: over 80%
